From article PMC7403583
No constants are given. Whether binding was seen depends on the method and setting. Binding seen in cells or lysates may run through a third protein. Some results given as binding are weak or reduced against the parent protein; the word gives no strength.

Legend:
[1] = biological target: T1, human IRF4, wild type (IRF4-wt) (human) (UniProt Q15306); assay: co-IP; 293T cells co-transfected with MYC-tagged and FLAG-tagged IRF4 (wt or AA); cell extracts immunoprecipitated with anti-FLAG agarose affinity matrix; immunoblot
T1 sequence: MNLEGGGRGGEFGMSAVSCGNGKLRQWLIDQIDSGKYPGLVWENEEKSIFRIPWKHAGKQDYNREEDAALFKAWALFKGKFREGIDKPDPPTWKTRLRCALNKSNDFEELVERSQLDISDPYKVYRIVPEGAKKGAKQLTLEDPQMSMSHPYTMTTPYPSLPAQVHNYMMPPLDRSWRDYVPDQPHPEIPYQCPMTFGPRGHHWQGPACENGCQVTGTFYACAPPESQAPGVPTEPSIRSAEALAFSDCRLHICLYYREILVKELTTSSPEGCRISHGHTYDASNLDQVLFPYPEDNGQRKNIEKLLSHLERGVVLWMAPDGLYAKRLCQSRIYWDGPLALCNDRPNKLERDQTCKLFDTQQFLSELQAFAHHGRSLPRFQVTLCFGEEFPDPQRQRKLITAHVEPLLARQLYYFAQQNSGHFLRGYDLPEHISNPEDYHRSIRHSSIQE

[2] = biological target: human IRF4 phosphomutant (IRF4-AA), cannot undergo S446/S447 phosphorylation (human) (UniProt Q15306); assay: as above

B1: human IRF4, wild type (IRF4-wt) (protein, UniProt Q15306-2 1-450)
chain: MNLEGGGRGGEFGMSAVSCGNGKLRQWLIDQIDSGKYPGLVWENEEKSIFRIPWKHAGKQDYNREEDAALFKAWALFKGKFREGIDKPDPPTWKTRLRCALNKSNDFEELVERSQLDISDPYKVYRIVPEGAKKGAKQLTLEDPQMSMSHPYTMTTPYPSLPAQVHNYMMPPLDRSWRDYVPDQPHPEIPYQCPMTFGPRGHHWQGPACENGCQVTGTFYACAPPESQAPGVPTEPSIRSAEALAFSDCRLHICLYYREILVKELTTSSPEGCRISHGHTYDASNLDQVLFPYPEDNGQRKNIEKLLSHLERGVVLWMAPDGLYAKRLCQSRIYWDGPLALCNDRPNKLERDQTCKLFDTQQFLSELQAFAHHGRSLPRFQVTLCFGEEFPDPQRQRKLITAHVEPLLARQLYYFAQQNSGHFLRGYDLPEHISNPEDYHRSIRHSSIQE
With B1 the binding [1] was “binds”.

B2: human IRF4 phosphomutant (IRF4-AA), cannot undergo S446/S447 phosphorylation (protein, UniProt Q15306-2 1-450)
chain: MNLEGGGRGGEFGMSAVSCGNGKLRQWLIDQIDSGKYPGLVWENEEKSIFRIPWKHAGKQDYNREEDAALFKAWALFKGKFREGIDKPDPPTWKTRLRCALNKSNDFEELVERSQLDISDPYKVYRIVPEGAKKGAKQLTLEDPQMSMSHPYTMTTPYPSLPAQVHNYMMPPLDRSWRDYVPDQPHPEIPYQCPMTFGPRGHHWQGPACENGCQVTGTFYACAPPESQAPGVPTEPSIRSAEALAFSDCRLHICLYYREILVKELTTSSPEGCRISHGHTYDASNLDQVLFPYPEDNGQRKNIEKLLSHLERGVVLWMAPDGLYAKRLCQSRIYWDGPLALCNDRPNKLERDQTCKLFDTQQFLSELQAFAHHGRSLPRFQVTLCFGEEFPDPQRQRKLITAHVEPLLARQLYYFAQQNSGHFLRGYDLPEHISNPEDYHRSIRHAAIQE
With B2 the binding [1] was “binds” and the binding [2] was “no binding”.
